B1: zinc-finger CCCH-type containing 8 (ZC3H8) (protein, UniProt Q8N5P1 1-291)
chain: MDFENLFSKPPNPALGKTATDSDERIDDEIDTEVEETQEEKIKLECEQIPKKFRHSAISPKSSLHRKSRSKDYDVYSDNDICSQESEDNFAKELQQYIQAREMANAAQPEESTKKEGVKDTPQAAKQKNKNLKAGHKNGKQKKMKRKWPGPGNKGSNALLRNSGSQEEDGKPKEKQQHLSQAFINQHTVERKGKQICKYFLERKCIKGDQCKFDHDAEIEKKKEMCKFYVQGYCTRGENCLYLHNEYPCKFYHTGTKCYQGEYCKFSHAPLTPETQELLAKVLDTEKKSCK
B2: CPSF3 (CPSF73) (protein, UniProt Q9UKF6 1-684)
chain: MSAIPAEESDQLLIRPLGAGQEVGRSCIILEFKGRKIMLDCGIHPGLEGMDALPYIDLIDPAEIDLLLISHFHLDHCGALPWFLQKTSFKGRTFMTHATKAIYRWLLSDYVKVSNISADDMLYTETDLEESMDKIETINFHEVKEVAGIKFWCYHAGHVLGAAMFMIEIAGVKLLYTGDFSRQEDRHLMAAEIPNIKPDILIIESTYGTHIHEKREEREARFCNTVHDIVNRGGRGLIPVFALGRAQELLLILDEYWQNHPELHDIPIYYASSLAKKCMAVYQTYVNAMNDKIRKQININNPFVFKHISNLKSMDHFDDIGPSVVMASPGMMQSGLSRELFESWCTDKRNGVIIAGYCVEGTLAKHIMSEPEEITTMSGQKLPLKMSVDYISFSAHTDYQQTSEFIRALKPPHVILVHGEQNEMARLKAALIREYEDNDEVHIEVHNPRNTEAVTLNFRGEKLAKVMGFLADKKPEQGQRVSGILVKRNFNYHILSPCDLSNYTDLAMSTVKQTQAIPYTGPFNLLCYQLQKLTGDVEELEIQEKPALKVFKNITVIQEPGMVVLEWLANPSNDMYADTVTTVILEVQSNPKIRKGAVQKVSKKLEMHVYSKRLEIMLQDIFGEDCVSVKDDSILSVTVDGKTANLNLETRTVECEEGSEDDESLREMVELAAQRLYEALTPVH
B3: ubiquitin-specific peptidase-like 1 (USPL1) (protein, UniProt Q5W0Q7 1-1092)
chain: MMDSPKIGNGLPVIGPGTDIGISSLHMVGYLGKNFDSAKVPSDEYCPACREKGKLKALKTYRISFQESIFLCEDLQCIYPLGSKSLNNLISPDLEECHTPHKPQKRKSLESSYKDSLLLANSKKTRNYIAIDGGKVLNSKHNGEVYDETSSNLPDSSGQQNPIRTADSLERNEILEADTVDMATTKDPATVDVSGTGRPSPQNEGCTSKLEMPLESKCTSFPQALCVQWKNAYALCWLDCILSALVHSEELKNTVTGLCSKEESIFWRLLTKYNQANTLLYTSQLSGVKDGDCKKLTSEIFAEIETCLNEVRDEIFISLQPQLRCTLGDMESPVFAFPLLLKLETHIEKLFLYSFSWDFECSQCGHQYQNRHMKSLVTFTNVIPEWHPLNAAHFGPCNNCNSKSQIRKMVLEKVSPIFMLHFVEGLPQNDLQHYAFHFEGCLYQITSVIQYRANNHFITWILDADGSWLECDDLKGPCSERHKKFEVPASEIHIVIWERKISQVTDKEAACLPLKKTNDQHALSNEKPVSLTSCSVGDAASAETASVTHPKDISVAPRTLSQDTAVTHGDHLLSGPKGLVDNILPLTLEETIQKTASVSQLNSEAFLLENKPVAENTGILKTNTLLSQESLMASSVSAPCNEKLIQDQFVDISFPSQVVNTNMQSVQLNTEDTVNTKSVNNTDATGLIQGVKSVEIEKDAQLKQFLTPKTEQLKPERVTSQVSNLKKKETTADSQTTTSKSLQNQSLKENQKKPFVGSWVKGLISRGASFMPLCVSAHNRNTITDLQPSVKGVNNFGGFKTKGINQKASHVSKKARKSASKPPPISKPPAGPPSSNGTAAHPHAHAASEVLEKSGSTSCGAQLNHSSYGNGISSANHEDLVEGQIHKLRLKLRKKLKAEKKKLAALMSSPQSRTVRSENLEQVPQDGSPNDCESIEDLLNELPYPIDIASESACTTVPGVSLYSSQTHEEILAELLSPTPVSTELSENGEGDFRYLGMGDSHIPPPVPSEFNDVSQNTHLRQDHNYCSPTKKNPCEVQPDSLTNNACVRTLNLESPMKTDIFDEFFSSSALNALANDTLDLPHFDEYLFENY
B4: ZC3H18 (protein, UniProt Q86VM9 1-953)
chain: MDVAESPERDPHSPEDEEQPQGLSDDDILRDSGSDQDLDGAGVRASDLEDEESAARGPSQEEEDNHSDEEDRASEPKSQDQDSEVNELSRGPTSSPCEEEGDEGEEDRTSDLRDEASSVTRELDEHELDYDEEVPEEPAPAVQEDEAEKAGAEDDEEKGEGTPREEGKAGVQSVGEKESLEAAKEKKKEDDDGEIDDGEIDDDDLEEGEVKDPSDRKVRPRPTCRFFMKGNCTWGMNCRFIHPGVNDKGNYSLITKADPFPPNGAPPLGPHPLMPANPWGGPVVDEILPPPPPEPPTESAWERGLRHAKEVLKKATIRKEQEPDFEEKRFTVTIGEDEREFDKENEVFRDWNSRIPRDVRDTVLEPYADPYYDYEIERFWRGGQYENFRVQYTETEPYHNYRERERERERENRQRERERERERDRERERRQRERERERERERDKERQRRKEEWERERAKRDEKDRQHRDRDREKEREKEKGKPKPRSPQPPSRQAEPPKKEAATTGPQVKRADEWKDPWRRSKSPKKKLGVSVSPSRARRRRKTSASSASASNSSRSSSRSSSYSGSGSSRSRSRSSSYSSYSSRSSRHSSFSGSRSRSRSFSSSPSPSPTPSPHRPSIRTKGEPAPPPGKAGEKSVKKPAPPPAPPQATKTTAPVPEPTKPGDPREARRKERPARTPPRRRTLSGSGSGSGSSYSGSSSRSRSLSVSSVSSVSSATSSSSSAHSVDSEDMYADLASPVSSASSRSPAPAQTRKEKGKSKKEDGVKEEKRKRDSSTQPPKSAKPPAGGKSSQQPSTPQQAPPGQPQQGTFVAHKEIKLTLLNKAADKGSRKRYEPSDKDRQSPPPAKRPNTSPDRGSRDRKSGGRLGSPKPERQRGQNSKAPAAPADRKRQLSPQSKSSSKVTSVPGKASDPGAASTKSGKASTLSRREELLKQLKAVEDAIARKRAKIPGKA

The chains behind the UniProt entries cited, without tags or fusion partners.
UniProt Q9Y2F5: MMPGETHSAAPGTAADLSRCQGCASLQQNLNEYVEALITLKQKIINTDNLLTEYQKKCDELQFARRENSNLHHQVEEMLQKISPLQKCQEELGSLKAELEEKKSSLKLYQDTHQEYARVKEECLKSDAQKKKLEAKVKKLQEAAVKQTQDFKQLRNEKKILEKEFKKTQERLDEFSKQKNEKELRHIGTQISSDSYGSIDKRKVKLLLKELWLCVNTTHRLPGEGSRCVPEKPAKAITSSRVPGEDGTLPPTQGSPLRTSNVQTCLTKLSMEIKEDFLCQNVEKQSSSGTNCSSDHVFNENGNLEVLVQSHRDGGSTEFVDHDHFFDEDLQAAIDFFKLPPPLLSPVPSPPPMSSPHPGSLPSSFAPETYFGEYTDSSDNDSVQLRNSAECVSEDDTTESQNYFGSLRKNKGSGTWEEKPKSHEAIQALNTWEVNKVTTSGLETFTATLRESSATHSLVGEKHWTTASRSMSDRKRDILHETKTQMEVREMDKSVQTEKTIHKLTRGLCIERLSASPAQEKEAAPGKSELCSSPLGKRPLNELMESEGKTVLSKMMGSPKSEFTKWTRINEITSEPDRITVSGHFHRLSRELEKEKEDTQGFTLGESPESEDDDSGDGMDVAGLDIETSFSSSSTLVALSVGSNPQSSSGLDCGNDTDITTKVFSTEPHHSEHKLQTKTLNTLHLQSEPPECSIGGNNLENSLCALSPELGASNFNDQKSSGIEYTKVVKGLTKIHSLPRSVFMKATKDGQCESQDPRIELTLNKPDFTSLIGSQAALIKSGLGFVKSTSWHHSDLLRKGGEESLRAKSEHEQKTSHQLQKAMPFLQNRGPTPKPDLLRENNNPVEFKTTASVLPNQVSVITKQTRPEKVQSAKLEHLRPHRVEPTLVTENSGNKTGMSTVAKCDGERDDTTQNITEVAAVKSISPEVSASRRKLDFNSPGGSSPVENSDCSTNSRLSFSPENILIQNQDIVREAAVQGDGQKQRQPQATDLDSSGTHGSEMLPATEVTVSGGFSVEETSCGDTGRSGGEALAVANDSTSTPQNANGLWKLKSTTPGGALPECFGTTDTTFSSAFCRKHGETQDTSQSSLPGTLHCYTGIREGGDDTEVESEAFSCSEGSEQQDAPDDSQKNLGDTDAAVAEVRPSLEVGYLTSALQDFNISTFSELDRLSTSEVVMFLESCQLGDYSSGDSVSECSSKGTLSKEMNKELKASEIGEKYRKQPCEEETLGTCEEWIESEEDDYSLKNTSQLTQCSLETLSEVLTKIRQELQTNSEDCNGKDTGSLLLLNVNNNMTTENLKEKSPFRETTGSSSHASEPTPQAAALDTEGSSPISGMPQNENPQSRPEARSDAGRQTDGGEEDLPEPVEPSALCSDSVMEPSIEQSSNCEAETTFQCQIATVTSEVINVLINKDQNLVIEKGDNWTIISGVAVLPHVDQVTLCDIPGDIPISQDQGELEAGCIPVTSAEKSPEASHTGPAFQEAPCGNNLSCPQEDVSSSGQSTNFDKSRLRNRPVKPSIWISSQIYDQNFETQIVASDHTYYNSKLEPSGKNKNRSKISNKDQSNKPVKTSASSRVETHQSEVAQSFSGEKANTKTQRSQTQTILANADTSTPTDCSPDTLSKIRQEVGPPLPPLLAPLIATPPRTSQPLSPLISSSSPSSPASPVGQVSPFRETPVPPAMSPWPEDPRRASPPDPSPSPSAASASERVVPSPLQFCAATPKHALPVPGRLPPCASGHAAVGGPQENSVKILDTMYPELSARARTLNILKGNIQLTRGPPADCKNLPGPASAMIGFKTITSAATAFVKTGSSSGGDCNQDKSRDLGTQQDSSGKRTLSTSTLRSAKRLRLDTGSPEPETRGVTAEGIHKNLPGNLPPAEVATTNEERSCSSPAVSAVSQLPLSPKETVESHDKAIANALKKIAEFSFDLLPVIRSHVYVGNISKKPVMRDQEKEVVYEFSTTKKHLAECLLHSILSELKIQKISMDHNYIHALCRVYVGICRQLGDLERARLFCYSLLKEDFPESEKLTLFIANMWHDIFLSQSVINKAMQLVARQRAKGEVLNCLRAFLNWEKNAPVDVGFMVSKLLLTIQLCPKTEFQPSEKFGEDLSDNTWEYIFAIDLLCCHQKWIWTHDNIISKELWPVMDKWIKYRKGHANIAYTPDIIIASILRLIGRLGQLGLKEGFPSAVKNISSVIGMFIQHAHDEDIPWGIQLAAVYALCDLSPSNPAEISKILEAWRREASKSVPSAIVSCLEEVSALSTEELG

These are yes or no findings as the source states them, for the method shown. Binding seen in cells or lysates may run through a third protein. These calls come from enrichment with a bait or labelling near it, and not all partners need be listed.

The target in the experiment is FLAG-tagged ICE1 (interactor of little elongation complex ELL subunit 1) (UniProt Q9Y2F5). Briefly: affinity purification with mass spectrometry; anti-FLAG agarose purification from nuclear extracts (prepared with Benzonase) of 293FRT cells stably expressing FLAG-ICE1, washes with 0.15 M NaCl, 0.1% Triton X-100, elution with FLAG peptide; MudPIT and gel-based mass spectrometry; parental cells as control.
For B1, the binding entry is on record as “binds”. Then B2, with “binds”; and B3, with “binds”; and B4, with “binds”.

Values taken from publication PMC7044329.
